{
  "source": "PubChem BioAssay AID602313",
  "about": "(National Center for Advancing Translational Sciences (NCATS), 2012)",
  "note": "In all, about 390,000 compounds went through this assay and about 760 (0.19%) were called active. This list was built around the results that the source calls inconclusive (neither active nor inactive); the mix of calls is not that of the screen. The call rests on the fitted dose curve; in most records, active means well fitted inhibition curve with a large enough effect; inconclusive means small, poorly fitted or top-dose-only effect; inactive means flat fitted curve, though single readings scatter. A potency beside an inconclusive call is a rough fit, not a confirmed value. Potency means the concentration at half of the fitted maximal effect.",
  "data": [
    {"experiment": "qHTS for Inhibitors of Vif-A3F Interactions: qHTS; further: nearly all actives have a fitted effect of over 65% in size", "settings": "HeLa A3F-eYFP + Vif (tagged APOBEC3F with the HIV-1 protein that degrades it), YFP fluorescence increase; series mostly up to 46.1 µM", "in_short": "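Fluorescence increase (Ex 488/Em 500-530) after overnight compound treatment at 37 deg C flags inhibition of Vif-driven A3F-eYFP loss in stable HeLa A3F-eYFP/Vif cells seeded overnight beforehand.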", "values": [
      {"molecule": "CCCS(=O)(=O)c1c(S(=O)(=O)CCC)c2c(N)cccn2c1C(=O)c1ccc(Br)cc1", "Potency": "inactive"},
      {"molecule": "Nc1nc(SCc2ccc(Cl)c(Cl)c2)n[nH]1", "Potency": "inconclusive: 31.6 µM [inhibitor, single point]"},
      {"molecule": "COCCCNc1nc2ccccc2nc1NS(=O)(=O)c1ccc(Cl)cc1", "Potency": "inactive"},
      {"molecule": "CC(C)(C)c1ccc(OCCC(=O)OCC(=O)NC2CCS(=O)(=O)C2)cc1", "note": "(centres undefined)", "Potency": "inconclusive: 5.62 µM [inhibitor, single point]"},
      {"molecule": "Cc1ccc2c(Sc3ccc(Cl)cc3)c(C(=O)N3CCCCC3)[nH]c2c1", "Potency": "inactive"},
      {"molecule": "Cc1ccccc1C(=O)Nc1nnc(CC(=O)N/N=C/c2cn(Cc3ccccc3)c3ccccc23)s1", "Potency": "inconclusive: 31.6 µM [inhibitor, single point]"},
      {"molecule": "C=CCn1cc(C(=O)N2CCc3ccccc3C2)c(=O)c2cc(S(=O)(=O)N(CC)CC)ccc21", "Potency": "inconclusive: 5.62 µM [inhibitor, single point]"},
      {"molecule": "Cc1sc2nc(COC(=O)c3ccc(Cl)c(N)c3)[nH]c(=O)c2c1C", "Potency": "inconclusive: 35.5 µM [inhibitor, single point]"},
      {"molecule": "Cc1ccc(N2CCN(C(=O)N3CCOCC3)CC2)c(C)c1", "Potency": "inconclusive: 6.31 µM [inhibitor, single point]"},
      {"molecule": "CCN(CC)c1ccc(/C=C(\\C#N)c2ccccn2)cc1", "Potency": "inconclusive: 17.8 µM [inhibitor, partial curve, poor fit]"},
      {"molecule": "COc1ccc(-c2[nH]c(-c3ccc(Cl)cc3)nc2SCC(=O)Nc2nccs2)cc1", "Potency": "inconclusive: 11.2 µM [inhibitor, partial curve, poor fit]"},
      {"molecule": "CN(Cc1nc2ccccc2c(=O)[nH]1)Cc1nc2ccsc2c(=O)[nH]1", "Potency": "inconclusive: 5.62 µM [inhibitor, single point]"},
      {"molecule": "C[C@H]1COC(=O)[C@H](NC(=O)OCC2c3ccccc3-c3ccccc32)C/C=C\\C[C@H](CC(=O)N(CCO)Cc2ccccc2)C(=O)N1", "Potency": "inactive"},
      {"molecule": "O=C(NCCc1c[nH]c2ccccc12)C1CCCN(S(=O)(=O)c2ccccc2)C1", "note": "(centres undefined)", "Potency": "inconclusive: 2.82 µM [inhibitor, single point]"},
      {"molecule": "COc1ccc(C2(CCN=Cc3ccc(N(C)C)cc3)CCOC(C)(C)C2)cc1", "note": "(centres undefined)", "Potency": "inconclusive: 2.51 µM [inhibitor, partial curve, poor fit]"},
      {"molecule": "CC[C@@](C)(NS(=O)(=O)OCC(Cl)(Cl)Cl)c1ccccc1", "Potency": "inconclusive: 10 µM [inhibitor, partial curve, poor fit]"},
      {"molecule": "O=C(Nc1nnc(C2=COCCO2)o1)c1ccc(Cl)cc1", "Potency": "inactive"},
      {"molecule": "COc1ccc2oc(=Nc3ccccc3)c(-c3nc4ccccc4[nH]3)cc2c1", "Potency": "active: 11.2 µM"},
      {"molecule": "O=C(N/N=C/c1ccccn1)c1cc(-c2ccc(Cl)cc2)nc2ccccc12", "Potency": "inconclusive: 22.4 µM [inhibitor, single point]"},
      {"molecule": "Cc1nn(C)cc1/C=N/NC(=O)c1ccco1", "Potency": "inconclusive: 35.5 µM [inhibitor, single point]"},
      {"molecule": "CC(=O)Nc1ccc(N(C(=O)c2cnccn2)C(C(=O)NC2CCCCC2)c2ccc(F)cc2)cc1", "note": "(centres undefined)", "Potency": "inconclusive: 35.5 µM [inhibitor, single point]"},
      {"molecule": "Cc1ccc2c(c1)C(c1ccccc1)N(C(=O)COc1ccc(Cl)cc1Cl)CC(=O)N2", "note": "(centres undefined)", "Potency": "inactive"},
      {"molecule": "O=C1CCCN1CCC1CCN(C(=S)Nc2ccc(F)cc2)CC1", "Potency": "inconclusive: 6.31 µM [inhibitor, single point]"},
      {"molecule": "c1ccc(CCc2nc(-c3cccnc3)no2)cc1", "Potency": "inactive"},
      {"molecule": "COc1ccc(Nc2nc(N(C)c3ccccc3)nc(N)c2[N+](=O)[O-])cc1", "Potency": "inconclusive: 35.5 µM [inhibitor, single point]"},
      {"molecule": "COc1ccc(OC)c(/C=C2\\SC(=S)N(Cc3cccnc3)C2=O)c1", "Potency": "inconclusive: 35.5 µM [inhibitor, single point]"},
      {"molecule": "NC(=S)N/N=C/c1ccc(C23CC4CC(CC(C4)C2)C3)cc1", "Potency": "inconclusive: 4.47 µM [inhibitor, full curve]"},
      {"molecule": "COc1ccc2nc(NC(=S)NC(=O)c3ccco3)sc2c1", "Potency": "active: 10 µM"},
      {"molecule": "CCSc1nsc(NC(=O)Nc2ccc(F)cc2F)n1", "Potency": "inactive"},
      {"molecule": "CC(=O)Nc1sc(/C(C#N)=C\\c2cccc(Cl)c2)nc1-c1ccc(C)cc1", "Potency": "active: 10 µM"},
      {"molecule": "CCn1c(CNC(=O)C2CCCCC2)cc2cc(C)ccc21", "Potency": "inconclusive: 4.47 µM [inhibitor, single point]"},
      {"molecule": "N#CCc1ccc(NC(=O)/C=C/c2ccc([N+](=O)[O-])o2)cc1", "Potency": "active: 2.51 µM"},
      {"molecule": "Cc1ccc(CNC(=O)c2cc(COc3c(F)cccc3F)on2)s1", "Potency": "inconclusive: 0.316 µM [inhibitor, full curve, poor fit]"},
      {"molecule": "CN1/C(=C\\C=N\\NC(=O)c2ccc(O)cc2)C(C)(C)c2ccccc21", "Potency": "inconclusive: 11.2 µM [inhibitor, partial curve]"},
      {"molecule": "N#C/C(N=Nc1ccccc1O)=N\\Nc1ccccc1O", "Potency": "active: 11.2 µM"},
      {"molecule": "CC(C)Oc1c(Br)cc(Br)cc1/C=N/NC(N)=S", "Potency": "inconclusive: 5.62 µM [inhibitor, single point]"},
      {"molecule": "COC(=O)c1nnn(-c2nc(N3CCOCC3)nc(N3CCOCC3)n2)c1C", "Potency": "inconclusive: 2.82 µM [inhibitor, single point]"},
      {"molecule": "CCOC(=O)N1CCc2c(sc(NC(=O)c3ccc(S(=O)(=O)N4CCCC4)cc3)c2C#N)C1", "Potency": "inconclusive: 35.5 µM [inhibitor, single point]"},
      {"molecule": "CCN(CC)CCNc1ccc(C)c2sc3ccc(O)cc3c(=O)c12", "Potency": "inconclusive: 35.5 µM [inhibitor, single point]"},
      {"molecule": "Nc1nc2c(-c3ccc(Br)cc3)nnn2c2ccccc12", "Potency": "inactive"},
      {"molecule": "O=C1CN(C(=O)N[C@@H](Cc2ccccc2)C(=O)N[C@H](Cc2ccccc2)C(=O)O)c2ccccc2N1", "Potency": "inactive"},
      {"molecule": "C=CCN1C(=O)/C(=C2/Sc3ccc(OC)cc3N2C)SC1=Nc1cccc(O)c1", "Potency": "active: 11.2 µM"},
      {"molecule": "Cc1[nH]c2ccc(Br)cc2c(=S)c1C/C=C/Cl", "Potency": "inconclusive: 22.4 µM [inhibitor, single point]"},
      {"molecule": "C/C(=N\\NC(=S)NCC(C)(C)C)c1cc(F)cc(F)c1O", "Potency": "inconclusive: 3.55 µM [inhibitor, partial curve, poor fit]"},
      {"molecule": "COc1ccc2ccccc2c1-c1sc(Nc2ccccc2)n[n+]1-c1ccc(F)cc1", "Potency": "inconclusive: 35.5 µM [inhibitor, single point]"},
      {"molecule": "c1ccc2c(c1)c1c(c3ccccc32)CN2CCCC2C1", "note": "(centres undefined)", "Potency": "inactive"},
      {"molecule": "COc1ccc(/C(C)=N/Nc2nccnc2Cl)cc1", "Potency": "inconclusive: 22.4 µM [inhibitor, single point]"},
      {"molecule": "COc1ccc(C2=CC(=O)N(Nc3ccccc3)C2=O)cc1", "Potency": "inconclusive: 3.16 µM [inhibitor, single point]"},
      {"molecule": "N#Cc1cc2ccc(N3CCOCC3)cc2cc1C#N", "Potency": "inconclusive: 35.5 µM [inhibitor, single point]"},
      {"molecule": "O=C(O)c1cccc(-c2ccc(/C=C3/SC(=Nc4ccccc4)N(Cc4cccnc4)C3=O)o2)c1", "Potency": "inconclusive: 28.2 µM [inhibitor, single point]"},
      {"molecule": "CC(C)N1CCc2c(sc(NC(=O)c3ccc(C(=O)c4ccccc4)cc3)c2C(N)=O)C1", "Potency": "inconclusive: 35.5 µM [inhibitor, single point]"},
      {"molecule": "CC(=O)Nc1ccc(NC(=O)CSc2ncc(C(=O)Nc3ccc(Cl)cc3)c(=O)n2C)cc1", "Potency": "inconclusive: 3.16 µM [inhibitor, single point]"},
      {"molecule": "O=C(CCCOc1ccc(Cl)cc1Cl)Nc1ccccc1C(=O)O", "Potency": "inactive"},
      {"molecule": "O=C(Nc1ccccc1N1CCCC1)c1ccccc1F", "Potency": "inconclusive: 35.5 µM [inhibitor, single point]"},
      {"molecule": "CCC(=O)c1cc(Br)ccc1OCC(=O)N1CCN(S(=O)(=O)c2ccccc2)CC1", "Potency": "inactive"},
      {"molecule": "O=C(O)CCc1ccc(-c2cccs2)n1-c1ccc(C(=O)O)cc1", "Potency": "inactive"},
      {"molecule": "CC(=O)Nc1ccc(C2=NNC(=Nc3ccc(S(=O)(=O)N4CCOCC4)cc3)SC2)cc1", "Potency": "inactive"},
      {"molecule": "CCc1cc(C(=O)COc2ccc(F)cc2)c(O)cc1O", "Potency": "inactive"},
      {"molecule": "Cc1cc(C)c(NC(=O)Cn2c(=O)n(CCCCC(=O)NCc3ccccc3Cl)c(=O)c3ccccc32)c(C)c1", "Potency": "inconclusive: 5.62 µM [inhibitor, single point]"},
      {"molecule": "CN(C(=O)COC(=O)c1ccccc1Nc1ccccc1)c1c(N)n(Cc2ccccc2)c(=O)[nH]c1=O", "Potency": "inactive"},
      {"molecule": "O=C(OC1CCOC1=O)C1CCN(S(=O)(=O)c2ccc(Cl)c(C(F)(F)F)c2)CC1", "note": "(centres undefined)", "Potency": "inconclusive: 3.55 µM [inhibitor, partial curve, poor fit]"},
      {"molecule": "OC(CNCCNc1ncccc1C(F)(F)F)Cn1ccc2ccccc21", "note": "(centres undefined)", "Potency": "inconclusive: 0.282 µM [inhibitor, full curve, poor fit]"},
      {"molecule": "COc1ccc(C(C[N+](=O)[O-])n2nc(C)cc2C)cc1", "note": "(centres undefined)", "Potency": "inconclusive: 6.31 µM [inhibitor, single point]"},
      {"molecule": "N#Cc1ccc(-c2cccs2)nc1SCc1ccc(Cl)cc1Cl", "Potency": "inactive"},
      {"molecule": "O=C(/C=C/c1cccc(C(F)(F)F)c1)N1CCN(c2ccccn2)CC1", "Potency": "inconclusive: 35.5 µM [inhibitor, single point]"},
      {"molecule": "O=[N+]([O-])c1ccc(N=NNc2ccc([N+](=O)[O-])cc2)cc1", "Potency": "inconclusive: 35.5 µM [inhibitor, single point]"},
      {"molecule": "Cc1cc(C)c(/C=C(\\C#N)C(N)=S)c(C)c1", "Potency": "inactive"},
      {"molecule": "COc1ccc(Br)cc1CNC(=O)CCCn1c(=O)c2cccn2c2ccccc21", "Potency": "inactive"},
      {"molecule": "CCC(=O)N(CCc1ccccc1)Cc1cc2cc3c(cc2[nH]c1=O)OCO3", "Potency": "inconclusive: 8.91 µM [inhibitor, partial curve]"}
    ]}
  ]
}
